PubChem BioAssay AID686943, Drosophila RNAi Screening Center – 2013
In all, the deposit lists about 23,000 reagents; this is an unselected part of those that have a named target and a result. 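Extra replicates exist only for a retested subset of genes; insulin dose and duration not given; both raised and lowered dpERK matter.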 The numbers tell different reagents against one gene apart. Not all columns of the deposit are shown. Not given: the amount of reagent, the time to read-out.

Aim: 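Fly genes whose loss alters ERK activation after insulin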 (primary screen)
Cell system: Drosophila S2R+ haemocyte-like cells expressing YFP-tagged ERK (Rolled)
Reagents: long dsRNA against Drosophila genes
Treatment: insulin stimulation versus unstimulated cells; dose and duration not given
Detection: 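Antibody staining for doubly phosphorylated ERK divided by ERK-YFP signal, as plate z-scores, in insulin-treated and untreated cells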
Scale: replicate 1, z-score of dpERK with insulin and replicate 2, z-score of dpERK with insulin: higher = more active ERK per ERK-YFP after insulin

Arf1 (ADP ribosylation factor 1) | replicate 1, z-score of dpERK with insulin = 0.9; replicate 2, z-score of dpERK with insulin = -0.72
CG13131 | replicate 1, z-score of dpERK with insulin = -0.01; replicate 2, z-score of dpERK with insulin = 0.68
CG6497 #1 | replicate 1, z-score of dpERK with insulin = 0.7; replicate 2, z-score of dpERK with insulin = -0.22
CG6497 #2 | replicate 1, z-score of dpERK with insulin = 0.18; replicate 2, z-score of dpERK with insulin = 0.05
CaMKI (Calcium/calmodulin-dependent protein kinase I) | replicate 1, z-score of dpERK with insulin = -0.78; replicate 2, z-score of dpERK with insulin = -1.44
rdgC (retinal degeneration C) | replicate 1, z-score of dpERK with insulin = 0.73; replicate 2, z-score of dpERK with insulin = 0.1
Elys | replicate 1, z-score of dpERK with insulin = -0.53; replicate 2, z-score of dpERK with insulin = -0.78
CG17154 | replicate 1, z-score of dpERK with insulin = -0.25; replicate 2, z-score of dpERK with insulin = -0.95
CG9663 | replicate 1, z-score of dpERK with insulin = 0.6; replicate 2, z-score of dpERK with insulin = 0.11
CR18217 (pseudo) | replicate 1, z-score of dpERK with insulin = 0.42; replicate 2, z-score of dpERK with insulin = 0.47
CG3699 #1 | replicate 1, z-score of dpERK with insulin = -0.37; replicate 2, z-score of dpERK with insulin = -0.18
CG3699 #2 | replicate 1, z-score of dpERK with insulin = 0.5; replicate 2, z-score of dpERK with insulin = 0
CG17378 | replicate 1, z-score of dpERK with insulin = 0.72; replicate 2, z-score of dpERK with insulin = 0.2
CG9997 | replicate 1, z-score of dpERK with insulin = 0.46; replicate 2, z-score of dpERK with insulin = -0.07
Agps (Alkylglycerone phosphate synthase) | replicate 1, z-score of dpERK with insulin = -0.59; replicate 2, z-score of dpERK with insulin = 0.3
CG13250 | replicate 1, z-score of dpERK with insulin = 0.44; replicate 2, z-score of dpERK with insulin = 0.36
CG31161 | replicate 1, z-score of dpERK with insulin = -1; replicate 2, z-score of dpERK with insulin = 0
CG13398 | replicate 1, z-score of dpERK with insulin = 0.3; replicate 2, z-score of dpERK with insulin = -0.07
RNaseX25 (Ribonuclease X25) | replicate 1, z-score of dpERK with insulin = 0.07; replicate 2, z-score of dpERK with insulin = 0.03
Pino (Pinocchio) #1 | replicate 1, z-score of dpERK with insulin = -3.91; replicate 2, z-score of dpERK with insulin = 0.81
Pino (Pinocchio) #2 | replicate 1, z-score of dpERK with insulin = -0.5; replicate 2, z-score of dpERK with insulin = -1.06

Entries above whose target name begins with R or r (2):
rdgC (retinal degeneration C) | replicate 1, z-score of dpERK with insulin = 0.73; replicate 2, z-score of dpERK with insulin = 0.1
RNaseX25 (Ribonuclease X25) | replicate 1, z-score of dpERK with insulin = 0.07; replicate 2, z-score of dpERK with insulin = 0.03
